Results deposited as PubChem BioAssay AID1671195 (Yale University, 2021).
Assay: 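Regulators of LDL receptor activity judged by labelled LDL uptake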 (primary screen). Cells: human Huh7 hepatoma cells. Reagent: siRNA pool against human genes, 18 nM. Time to read-out: about 2 to 2.5 days of knockdown, then 8 h LDL uptake. Treatment: DiI-labelled LDL at 30 µg/ml for 8 h, in lipoprotein-deficient serum medium. Measured: 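Per-cell DiI-LDL intensity by automated imaging; well means scaled to the plate median and given as a robust z-score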. Direction: robust z-score: higher = more LDL uptake after knockdown. Hit rule: 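Active when two or more replicates show a robust z-score above 2 or below -2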.
This is one part, drawn at random, of about 22,000 reagents tested. About 1,510 of all reagents (6.9%) were called active. 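Active includes knockdowns raising or lowering LDL uptake; positive z-scores mean more uptake, negative mean less.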 Reagents against one gene are numbered here. Reagent sequences are not shown.

| target | reagent no. | robust z-score, replicate 1 | robust z-score, replicate 2 | robust z-score, replicate 3 | activity call |
| --- | --- | --- | --- | --- | --- |
| PDCL2 (phosducin like 2) | 1 | 1.65 | 0.876 | 0.795 | inactive |
| ATP5F1C (ATP synthase F1 subunit gamma) | 1 | 1.26 | 0.54 | 1.27 | inactive |
| BAHD1 (bromo adjacent homology domain containing 1) | 1 | 0.605 | 1.1 | 0.421 | inactive |
| MBD3L1 (methyl-CpG binding domain protein 3 like 1) | 1 | -0.64 | -0.904 | -1.1 | inactive |
| TLR5 (toll like receptor 5) | 1 | 1.13 | 1.17 | 1.25 | inactive |
| PLAA (phospholipase A2 activating protein) | 1 | -0.502 | -1.33 | -0.499 | inactive |
| LOC440711 (retired record) | 1 | 0.9 | 0.989 | 1.21 | inactive |
| PLPP6 (phospholipid phosphatase 6) | 1 | 0.147 | 0.443 | 0.0327 | inactive |
| CLDN12 (claudin 12) | 1 | 1.83 | -0.427 | -0.457 | inactive |
| IL4R (interleukin 4 receptor) | 1 | 1.7 | 0.696 | 0.93 | inactive |
| LSM7 | 1 | -1.14 | -0.951 | -0.757 | inactive |
| UTP4 (UTP4 small subunit processome component) | 1 | -1.68 | -1.71 | -1.65 | inactive |
| SLC24A2 | 1 | 0.458 | -0.217 | 0.342 | inactive |
| AURKB (aurora kinase B) | 1 | -0.193 | 0.363 | -0.31 | inactive |
| C1orf56 (chromosome 1 open reading frame 56) | 1 | -1.08 | -0.11 | -0.941 | inactive |
| PSEN2 (presenilin 2) | 1 | 2.7 | 1.91 | 3.1 | active |
| ZBP1 (Z-DNA binding protein 1) | 1 | -1.87 | -1.62 | -1.48 | inactive |

Next part, starting with the last 5 of the part before.
| target | reagent no. | robust z-score, replicate 1 | robust z-score, replicate 2 | robust z-score, replicate 3 | activity call |
| --- | --- | --- | --- | --- | --- |
| SLC24A2 | 1 | 0.458 | -0.217 | 0.342 | inactive |
| AURKB (aurora kinase B) | 1 | -0.193 | 0.363 | -0.31 | inactive |
| C1orf56 (chromosome 1 open reading frame 56) | 1 | -1.08 | -0.11 | -0.941 | inactive |
| PSEN2 (presenilin 2) | 1 | 2.7 | 1.91 | 3.1 | active |
| ZBP1 (Z-DNA binding protein 1) | 1 | -1.87 | -1.62 | -1.48 | inactive |
| HSPBAP1 (HSPB1 associated protein 1) | 1 | -0.149 | 0.554 | 0.0901 | inactive |
| NUMBL (NUMB like endocytic adaptor protein) | 1 | -0.252 | -0.151 | -0.257 | inactive |
| LINC01547 (long independently transcribed non-coding RNA 1547) | 1 | -1.65 | -2.05 | -2.02 | active |
| LINC01547 (long independently transcribed non-coding RNA 1547) | 2 | 1.37 | 1.03 | 0.866 | inactive |
| ELOF1 (elongation factor 1) | 1 | -0.517 | -0.0554 | -0.206 | inactive |
| IFNL2 (interferon lambda 2) | 1 | -0.85 | -0.631 | -0.769 | inactive |
| ACTL7A (actin like 7A) | 1 | -0.00778 | -0.403 | -0.407 | inactive |
| KCNRG (potassium channel regulator) | 1 | 0.224 | -0.0961 | 0.147 | inactive |
| COXFA4L2 (cytochrome c oxidase hypoxia associated subunit FA4L2) | 1 | -1.04 | 0.491 | -0.684 | inactive |
| SLC19A4P | 1 | 0.867 | 1.15 | 0.142 | inactive |
| TREX1 (three prime repair exonuclease 1) | 1 | -0.337 | -0.685 | -0.771 | inactive |
| FHL5 (four and a half LIM domains 5) | 1 | 0.843 | 1.22 | 1.33 | inactive |
| C11orf96 (chromosome 11 open reading frame 96) | 1 | 0.425 | 0.404 | 0.675 | inactive |
| FMO3 (flavin containing dimethylaniline monoxygenase 3) | 1 | -1.43 | -0.958 | -0.983 | inactive |
| PSD3 (pleckstrin and Sec7 domain containing 3) | 1 | -0.726 | 1.36 | -1.91 | inactive |
| BABAM1 (BRISC and BRCA1 A complex member 1) | 1 | 0.763 | -0.681 | 0.827 | inactive |
| DAXX (death domain associated protein) | 1 | 0.777 | 1.03 | 1.06 | inactive |
| ERAP2 (endoplasmic reticulum aminopeptidase 2) | 1 | -0.325 | -0.739 | -0.315 | inactive |
| PIAS3 (protein inhibitor of activated STAT 3) | 1 | 1.05 | 2.46 | 0.427 | inactive |
| SLC38A6 | 1 | 0.0672 | -0.0601 | 0.704 | inactive |
| MAL2 (mal, T cell differentiation protein 2) | 1 | -0.247 | -1.16 | -0.858 | inactive |
| CLLU1-AS1 (CLLU1 antisense RNA 1) | 1 | 0.537 | 0.41 | 0.167 | inactive |
| TPTEP2 (TPTE pseudogene 2) | 1 | 0.589 | 0.0801 | 0.572 | inactive |
| TERB2 (telomere repeat binding bouquet formation protein 2) | 1 | -0.716 | -1.79 | -1.03 | inactive |
| ZNF597 (zinc finger protein 597) | 1 | -1.89 | -2.31 | -0.374 | inactive |
| SCUBE2 (signal peptide, CUB domain and EGF like domain containing 2) | 1 | -0.519 | -0.313 | -0.466 | inactive |
| LOC441618 (retired record) | 1 | -0.836 | -0.928 | -0.714 | inactive |
| ZNF37A (zinc finger protein 37A) | 1 | 0.569 | 0.721 | 0.72 | inactive |
| LOC402230 | 1 | -0.888 | 0.298 | 0.0177 | inactive |
